Measurements reported in PubChem BioAssay AID1259308 (NCATS, 2017).
This is an unselected part of about 59,000 deposited reagents. Over the whole deposit, about 1,510 (2.6%) are marked active. 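Calls use total luciferase alone and ignore viability, so some active siRNAs may act by altering cell number.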 The numbers tell different reagents against one gene apart. Not all columns of the deposit are shown.

Screen: 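Genes whose loss raises luciferase production in HEK293 cells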 (primary screen)
System: human HEK293 embryonic kidney cells stably expressing firefly luciferase (HEK-CMV-Luc2-Hygro)
Knock-down reagent: single siRNA against human genes, 0.8 pmol siRNA per well
Timing: 72 h
Detection: 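Reporter luminescence and viable-cell signal on separate replicate plates, given as percent of non-targeting control and median/MAD z-scores, plus per-cell luciferase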
Reading the numbers: total luciferase, z-score: higher = more reporter protein produced
Rule for the call: 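Active when the median/MAD z-score for overall luciferase is greater than 3; a gene was taken forward for validation with new siRNAs if at least two of its three siRNAs passed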
Meaning of the calls: active = raised luciferase; inactive = no rise

| target | siRNA no. | total luciferase, z-score | activity call |
| --- | --- | --- | --- |
| C19orf73 (GeneID 55150) | 1 | 0.881 | inactive |
| C19orf73 (GeneID 55150) | 2 | 0.338 | inactive |
| C19orf73 (GeneID 55150) | 3 | -0.698 | inactive |
| PACRG-AS3 (GeneID 729658) | 1 | 0.509 | inactive |
| PACRG-AS3 (GeneID 729658) | 2 | 2.34 | inactive |
| PACRG-AS3 (GeneID 729658) | 3 | 6.79 | active |
| GLUD2 (GeneID 2747) | 1 | -0.0239 | inactive |
| GLUD2 (GeneID 2747) | 2 | -2.46 | inactive |
| GLUD2 (GeneID 2747) | 3 | 0.0806 | inactive |
| APP (GeneID 351) | 1 | 0.787 | inactive |
| APP (GeneID 351) | 2 | -0.17 | inactive |
| APP (GeneID 351) | 3 | 0.914 | inactive |
| CARMIL3 (GeneID 90668) | 1 | -0.395 | inactive |
| CARMIL3 (GeneID 90668) | 2 | 1.19 | inactive |
| CARMIL3 (GeneID 90668) | 3 | -1.97 | inactive |
| HEMK1 (GeneID 51409) | 1 | -0.734 | inactive |
| HEMK1 (GeneID 51409) | 2 | 0.179 | inactive |
| HEMK1 (GeneID 51409) | 3 | -2.26 | inactive |
| RFLNB (GeneID 359845) | 1 | -1.49 | inactive |
| RFLNB (GeneID 359845) | 2 | 0.754 | inactive |
| RFLNB (GeneID 359845) | 3 | 0.561 | inactive |
| CETN1 (GeneID 1068) | 1 | 0.163 | inactive |
| CETN1 (GeneID 1068) | 2 | -0.456 | inactive |
| CETN1 (GeneID 1068) | 3 | -0.56 | inactive |
| NPPA (GeneID 4878) | 1 | -0.169 | inactive |
| NPPA (GeneID 4878) | 2 | 0.171 | inactive |
| NPPA (GeneID 4878) | 3 | -1.67 | inactive |
| ITIH6 (GeneID 347365) | 1 | -1.03 | inactive |
| ITIH6 (GeneID 347365) | 2 | 0.458 | inactive |
| ITIH6 (GeneID 347365) | 3 | -1.04 | inactive |
| SYMPK (GeneID 8189) | 1 | -1.51 | inactive |
| SYMPK (GeneID 8189) | 2 | -2.24 | inactive |
| SYMPK (GeneID 8189) | 3 | -2.22 | inactive |
| CAST (GeneID 831) | 1 | -2.44 | inactive |
| CAST (GeneID 831) | 2 | -0.794 | inactive |
| CAST (GeneID 831) | 3 | 1.13 | inactive |
| AGMAT (GeneID 79814) | 1 | -0.452 | inactive |
| AGMAT (GeneID 79814) | 2 | -1.59 | inactive |
| AGMAT (GeneID 79814) | 3 | 0.92 | inactive |
| BCL6B (GeneID 255877) | 1 | -0.87 | inactive |
| BCL6B (GeneID 255877) | 2 | -0.219 | inactive |
| BCL6B (GeneID 255877) | 3 | 2.74 | inactive |
| CDH19 (GeneID 28513) | 1 | 2.45 | inactive |
| CDH19 (GeneID 28513) | 2 | 0.781 | inactive |
| CDH19 (GeneID 28513) | 3 | 0.0158 | inactive |
| SHCBP1L (GeneID 81626) | 1 | -0.259 | inactive |
| SHCBP1L (GeneID 81626) | 2 | -0.57 | inactive |
| SHCBP1L (GeneID 81626) | 3 | -0.275 | inactive |
| GPIHBP1 (GeneID 338328) | 1 | 0.751 | inactive |
| GPIHBP1 (GeneID 338328) | 2 | -1.92 | inactive |
| GPIHBP1 (GeneID 338328) | 3 | 0.919 | inactive |
| EME1 (GeneID 146956) | 1 | 0.645 | inactive |
| EME1 (GeneID 146956) | 2 | 2.16 | inactive |
| EME1 (GeneID 146956) | 3 | -0.365 | inactive |
| TMEM79 (GeneID 84283) | 1 | 0.864 | inactive |
| TMEM79 (GeneID 84283) | 2 | 0.447 | inactive |
| TMEM79 (GeneID 84283) | 3 | -1.11 | inactive |

Copied from the listing for reference:
| target | siRNA no. | total luciferase, z-score | activity call |
| --- | --- | --- | --- |
| C19orf73 (GeneID 55150) | 1 | 0.881 | inactive |
| C19orf73 (GeneID 55150) | 2 | 0.338 | inactive |
| C19orf73 (GeneID 55150) | 3 | -0.698 | inactive |
| PACRG-AS3 (GeneID 729658) | 1 | 0.509 | inactive |
| PACRG-AS3 (GeneID 729658) | 2 | 2.34 | inactive |
| PACRG-AS3 (GeneID 729658) | 3 | 6.79 | active |
